The list shows a part of the results. The main result of the screen is listed elsewhere. These columns were measured beside it and carry no call. Most of these compounds were active or inconclusive in the main read-out, so they are no random draw. The note in brackets gives the kind of curve behind each potency; many fits are weak.
Test: qHTS Assay for Lipid Storage Modulators in Drosophila S3 Cells;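 for cell number change: cells counted by Cell Tracker Red CMTPX staining in the red channel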
Details: BODIPY lipid droplet fluorescence, 18-24 h; for cell number change: measured here: cell count max response, cells fed with added oleic acid
Outline: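 Drosophila S3 cells loaded with oleic acid (400 uM, as added) and compounds at several concentrations; lipid droplets imaged by 488-nm laser-scanning cytometry, 500–530 nm intensity and object ratio to cell channel. Percent activity normalized to 20 uM Triacsin C.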

[1] = measured here: cell number channel AC50, cells fed with added oleic acid
[2] = measured here: lipid fluorescence (Fed channel) AC50, cells fed with added oleic acid

| SMILES | cell number change [%] | AC50 [1] | AC50 [2] |
| --- | --- | --- | --- |
| O=C(Cc1ccc([N+](=O)[O-])cc1)NCc1ccccc1Cl | 57.3 | 23.1 µM [rising, partial curve] | 29.1 µM [rising, single point] |
| Nc1ncnc2c1ncn2C1OC(COP(=O)(O)O)C(O)C1O (configuration not stated) | 11.9 | – | 0.58 µM [falling, single point] |
| Cc1cc(C)c(NC(=O)C(C)N2CCCCCC2)c(C)c1 (configuration not stated) | 7.43 | – | – |
| O=C(OCCN(CCOC(=O)c1ccncc1)S(=O)(=O)c1cccs1)c1ccncc1 | -5.09 | – | – |
| Cc1c(NC(=O)c2cc(-n3cnnc3)ccc2Cl)cccc1-c1nc2ccccc2s1 | – | 0.461 µM [rising, full curve] | – |
| O=C(NC12CC3CC(CC(C3)C1)C2)c1cncc(Br)c1 | 29.4 | 0.731 µM [rising, full curve, poor fit] | – |
| N#Cc1ccc(CSc2nnc(NC(=O)C3CC(=O)N(c4ccc5c(c4)OCCO5)C3)s2)cc1 (configuration not stated) | 3.6 | – | 0.231 µM [rising, full curve, poor fit] |
| O=C1OCC2=C1C(c1ccc3c(c1)OCO3)Sc1ccccc1N2 (configuration not stated) | -0.729 | – | – |
| Cc1nn(-c2nc3ccccc3[nH]2)c(N)c1-c1ccc(Cl)cc1 | -13 | – | 16.4 µM [falling, single point] |
| Cn1c(Cc2cccs2)nnc1SCc1nc2ccccc2[nH]1 | -3.79 | – | – |
| CC(C)N(Cc1ccccc1)C(=S)NC1CCCCC1 | -20.7 | 0.731 µM [falling, single point] | 0.651 µM [falling, single point] |
| CC(=O)c1c(C)[nH]c(C(=O)Nc2ccc(Cl)c(S(=O)(=O)N(C)C)c2)c1C | – | 4.11 µM [rising, partial curve, poor fit] | – |
| CCc1ccc(OCC(=O)Nc2ccc(S(=O)(=O)Nc3ccccn3)cc2)cc1 | -5.13 | – | – |
| CCN1CCN(c2cc(C)c3cc(NC(=O)c4cnccn4)ccc3n2)CC1 | – | – | 5.8 µM [rising, partial curve] |
| CCCOc1ccccc1/C=N/Nc1ccnc(=O)[nH]1 | 13.8 | – | 6.51 µM [falling, full curve, poor fit] |
| COC(=O)COc1ccc(S(=O)(=O)N2CCc3ccccc3C2)cc1 | – | – | 5.8 µM [falling, full curve] |
| COC(=O)c1ccccc1NC(=O)CN1CCN(C23CC4CC(CC(C4)C2)C3)CC1 | 6.57 | – | 9.2 µM [falling, partial curve] |
| Cc1nc(N2CCOCC2)[nH]c(=O)c1C(O)C(Cl)(Cl)Cl (configuration not stated) | -0.136 | 0.517 µM [falling, full curve] | – |
| CCc1nc2ccc(C(=O)N3CCN(c4cccc(C(F)(F)F)c4)CC3)cc2nc1CC | 39.2 | 2.91 µM [rising, full curve, poor fit] | 6.51 µM [falling, single point] |

Full records, quoted from the list. Values in the order: cell number change [%] | AC50 [1] | AC50 [2]
`Cc1cc(C)c(NC(=O)C(C)N2CCCCCC2)c(C)c1` (configuration not stated) reads 7.43 | – | –
`O=C(OCCN(CCOC(=O)c1ccncc1)S(=O)(=O)c1cccs1)c1ccncc1` reads -5.09 | – | –

Source: PubChem BioAssay AID2685 (National Center for Advancing Translational Sciences (NCATS), 2010)
